Laboratory results as given in paper PMC12141185.
Results are given in words; binding and its absence hold for the method and conditions named. In cells and extracts the contact can be indirect. Some binding calls cover weakened binding; strength is not graded here. Tags and fused reporters may be left off the sequences shown.

Protein sequences, listed by entry. Tags and fused reporters are not part of them.
UniProt Q13283: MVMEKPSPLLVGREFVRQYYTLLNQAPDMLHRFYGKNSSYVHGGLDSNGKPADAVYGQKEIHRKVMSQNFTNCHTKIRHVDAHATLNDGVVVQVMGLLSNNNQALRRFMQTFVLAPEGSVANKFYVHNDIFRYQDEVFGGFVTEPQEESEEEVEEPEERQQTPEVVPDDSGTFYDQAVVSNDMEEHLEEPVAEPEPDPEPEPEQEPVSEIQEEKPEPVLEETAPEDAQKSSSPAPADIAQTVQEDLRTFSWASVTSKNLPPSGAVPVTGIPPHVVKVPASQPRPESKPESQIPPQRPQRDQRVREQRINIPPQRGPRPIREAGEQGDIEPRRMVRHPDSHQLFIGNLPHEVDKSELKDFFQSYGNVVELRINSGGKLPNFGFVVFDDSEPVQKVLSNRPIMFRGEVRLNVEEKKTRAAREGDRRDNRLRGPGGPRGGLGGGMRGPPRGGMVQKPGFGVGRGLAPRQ
UniProt O95365: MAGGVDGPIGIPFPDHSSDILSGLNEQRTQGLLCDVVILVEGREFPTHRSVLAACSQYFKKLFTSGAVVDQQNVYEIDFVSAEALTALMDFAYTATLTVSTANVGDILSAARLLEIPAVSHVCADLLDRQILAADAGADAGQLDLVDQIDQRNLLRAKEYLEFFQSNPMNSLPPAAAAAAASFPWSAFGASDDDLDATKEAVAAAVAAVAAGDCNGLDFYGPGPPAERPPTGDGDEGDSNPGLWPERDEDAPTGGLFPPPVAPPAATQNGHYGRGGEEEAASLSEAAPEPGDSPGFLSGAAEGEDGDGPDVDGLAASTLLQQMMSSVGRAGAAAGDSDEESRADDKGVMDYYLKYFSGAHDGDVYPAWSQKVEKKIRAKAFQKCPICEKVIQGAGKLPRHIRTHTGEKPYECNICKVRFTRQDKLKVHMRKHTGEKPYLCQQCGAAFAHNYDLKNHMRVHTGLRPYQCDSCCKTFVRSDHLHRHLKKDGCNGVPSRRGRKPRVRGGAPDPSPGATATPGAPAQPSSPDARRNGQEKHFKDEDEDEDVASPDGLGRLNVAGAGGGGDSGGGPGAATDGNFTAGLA

Biological target: T1, 3 × FLAG-TMED3 (Transmembrane emp24 domain-containing protein 3) (UniProt Q9Y3Q3)
T1 sequence: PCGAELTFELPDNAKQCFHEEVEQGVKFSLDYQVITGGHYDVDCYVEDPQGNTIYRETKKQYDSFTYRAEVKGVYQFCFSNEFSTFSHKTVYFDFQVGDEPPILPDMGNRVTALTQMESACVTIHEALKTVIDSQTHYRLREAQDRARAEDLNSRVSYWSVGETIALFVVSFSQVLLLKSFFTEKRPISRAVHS
Assay: co-IP; FLAG beads (Sigma, A2220) on lysates of NC and OE (3xFLAG-TMED3) U87 MG cells; Western blot of input and IP samples

G3BP1 (from UniProt Q13283 1-466)
binding: binds

Zinc finger and BTB domain-containing protein 7A (ZBTB7A) (from UniProt O95365 1-584)
binding: binds
